Laboratory results: patent US20210145828A1
These are yes or no findings as the source states them, for the method shown. In cells and extracts the contact can be indirect. Some results given as binding are weak or reduced against the parent protein; the word gives no strength.

By UniProt entry, the sequences of proteins in these tests, tags left out. Where a name states a change or a piece, a line headed by the entry shows the natural chain unless it says otherwise.
UniProt Q03113: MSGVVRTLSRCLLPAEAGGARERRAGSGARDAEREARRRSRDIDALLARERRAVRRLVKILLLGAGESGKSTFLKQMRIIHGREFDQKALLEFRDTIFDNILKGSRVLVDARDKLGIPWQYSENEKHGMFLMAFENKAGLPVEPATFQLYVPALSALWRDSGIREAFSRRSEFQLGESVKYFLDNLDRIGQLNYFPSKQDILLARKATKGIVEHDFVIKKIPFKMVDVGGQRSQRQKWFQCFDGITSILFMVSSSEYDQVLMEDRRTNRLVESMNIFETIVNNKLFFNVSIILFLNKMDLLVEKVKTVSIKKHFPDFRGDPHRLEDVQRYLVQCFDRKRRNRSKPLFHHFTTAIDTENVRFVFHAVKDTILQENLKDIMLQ

Legend:
[1] = target: M3-muscarinic acetylcholine receptor (M3R) (human) (UniProt P20309); experiment: co-immunoprecipitation from HASMC lysates
[2] = target: M3-muscarinic acetylcholine receptor (M3R) (human) (UniProt P20309); experiment: co-immunoprecipitation from primary HASMC lysates: IP with anti-M3R, blot for Gα12; band density diminished after carbachol (10 µM, 1 minute)
[3] = target: M3-muscarinic acetylcholine receptor (M3R) (human) (UniProt P20309); experiment: co-immunoprecipitation in primary HASMCs (FIG. 2A) and SRE-luciferase reporter (FIG. 2B)
Gα12 (human) [4] = target: Gα12 (human) (UniProt Q03113); experiment: co-immunoprecipitation and SRE-luciferase reporter in HASMCs
Gα12 (human) [5] = target: Gα12 (human) (UniProt Q03113); experiment: co-immunoprecipitation from primary HASMC lysates: IP with anti-Gα12, blot for M3R; band density diminished after carbachol (10 µM, 1 minute)

Substance | binding [1] | binding [2] | binding [3] | binding (Gα12 (human) [4]) | binding (Gα12 (human) [5])
Gα12 (from UniProt Q03113 1-381) | binds | binds | binds | – | –
M3-muscarinic acetylcholine receptor (M3R) (from UniProt P20309 1-590) | – | – | – | binds | binds
